Measurements taken from PubChem BioAssay AID248 (DTP/NCI, 2004).
The list is a part of this screen's results and no random one: it gathers tests that were run many times, whatever their T/C, doses with no T/C, and many T/C values between a quarter and a half above the control. Other doses and runs of a compound stand elsewhere. T/C gives the treated animals as a percentage of the vehicle group. Some doses have a count of surviving animals in place of a T/C: the source files T/C as zero there, which appears to mark a toxic dose or a test without result, not a measured value. Some survivor counts are full or nearly so, which does not show that the dose was tolerated: the source hardly ever lists a survival T/C far under the control, and the zero likely stands for such cases as well. Counts of survivors are from the toxicity check (mostly the fifth day) where no day follows; animals may have died later. Schedule codes are those of the source, read here as Q, the interval in days (D) or hours (H), X, the number of doses. Some schedule codes hold Z or #, which are not explained here. For survival time, the PubChem record calls one and a half times the control and up active, and a quarter to a half above the control has no call in these data; cut-offs in other NCI protocols can differ. Some doses were run more than once; the values are given in rising order.

System: L1210 leukemia ip in BDF1 mice, survival T/C
Assay: NCI In Vivo Anticancer Drug Screen. Data for tumor model L1210 Leukemia (intraperitoneal) in B6D2F1 (BDF1) mice
Conditions: T/C endpoint: mean survival time, higher T/C = longer survival

O=C(O)CCCC1CCCCC1.[Cu+2]
survivor count (dose: 20.0 mg/kg/injection, schedule: Q04DX003 (ip), vehicle: Klucel (hydroxypropylcellulose) (HPC)): 3 of 6 | survivor count (dose: 40.0 mg/kg/injection, schedule: Q04DX003 (ip), vehicle: Klucel (hydroxypropylcellulose) (HPC)): 1 of 6 | survivor count (dose: 80.0 mg/kg/injection, schedule: Q04DX003 (ip), vehicle: Klucel (hydroxypropylcellulose) (HPC)): 0 of 6 | survivor count (dose: 100.0 mg/kg/injection, schedule: Q04DX003 (ip), vehicle: Klucel (hydroxypropylcellulose) (HPC)): 1 of 6 | survivor count (dose: 200.0 mg/kg/injection, schedule: Q04DX003 (ip), vehicle: Klucel (hydroxypropylcellulose) (HPC)): 0 of 6 | survivor count (dose: 400.0 mg/kg/injection, schedule: Q04DX003 (ip), vehicle: Klucel (hydroxypropylcellulose) (HPC)): 0 of 6

COc1cc2c(cc1OC)C1=[N+](CCC1)CC2
survivor count (dose: 300.0 mg/kg/injection, schedule: Q01DX001 (ip), vehicle: saline): 2 of 6

COc1ccc(-c2ccc(OC)c(OC)c2OC)c(N)c1
survivor count (dose: 35.0 mg/kg/injection, schedule: Q01DX Z (ip), vehicle: carboxymethylcellulose (CMC)): 6 of 6

CCOC(=O)N1c2ccccc2C=CC1OCC (centres undefined)
survivor count (dose: 100.0 mg/kg/injection, schedule: Q04DX003 (ip), vehicle: saline): 3 of 6 | survivor count (dose: 200.0 mg/kg/injection, schedule: Q04DX003 (ip), vehicle: saline): 0 of 6 | survivor count (dose: 400.0 mg/kg/injection, schedule: Q04DX003 (ip), vehicle: saline): 0 of 6

COc1cc(C=Nc2ccc(-c3csc(-c4ccccc4)n3)c(Cl)c2)ccc1N(CCCl)CCCl
T/C (dose: 6.0 mg/kg/injection, schedule: Q01DX009 (ip), vehicle: other): 137 % of control | T/C (dose: 8.0 mg/kg/injection, schedule: Q01DX009 (ip), vehicle: carboxymethylcellulose (CMC)): 128 % of control | T/C (dose: 9.0 mg/kg/injection, schedule: Q01DX009 (ip), vehicle: other): 135 % of control | T/C (dose: 12.0 mg/kg/injection, schedule: Q01DX001 (ip), vehicle: carboxymethylcellulose (CMC)): 126 % of control | T/C (dose: 13.0 mg/kg/injection, schedule: Q01DX009 (ip), vehicle: carboxymethylcellulose (CMC)): 137 % of control | T/C (dose: 13.0 mg/kg/injection, schedule: Q01DX009 (ip), vehicle: other): 138 % of control | T/C (dose: 13.3 mg/kg/injection, schedule: Q01DX009 (ip), vehicle: carboxymethylcellulose (CMC)): 144 % of control | T/C (dose: 19.0 mg/kg/injection, schedule: Q01DX001 (ip), vehicle: carboxymethylcellulose (CMC)): 129 % of control | T/C (dose: 20.0 mg/kg/injection, schedule: Q01DX001 (ip), vehicle: carboxymethylcellulose (CMC)): 135 % of control | T/C (dose: 20.0 mg/kg/injection, schedule: Q01DX009 (ip), vehicle: carboxymethylcellulose (CMC)): 140 % of control | T/C (dose: 29.0 mg/kg/injection, schedule: Q01DX001 (ip), vehicle: carboxymethylcellulose (CMC)): 134 % of control | T/C (dose: 30.0 mg/kg/injection, schedule: Q01DX001 (ip), vehicle: carboxymethylcellulose (CMC)): 131 % of control | T/C (dose: 44.0 mg/kg/injection, schedule: Q01DX001 (ip), vehicle: carboxymethylcellulose (CMC)): 138 and 146 % of control | survivor count (dose: 44.0 mg/kg/injection, schedule: Q01DX009 (ip), vehicle: carboxymethylcellulose (CMC)): 6 of 6 | T/C (dose: 45.0 mg/kg/injection, schedule: Q01DX001 (ip), vehicle: carboxymethylcellulose (CMC)): 146 % of control | survivor count (dose: 45.0 mg/kg/injection, schedule: Q01DX009 (ip), vehicle: carboxymethylcellulose (CMC)): 6 of 6 | T/C (dose: 66.0 mg/kg/injection, schedule: Q01DX001 (ip), vehicle: carboxymethylcellulose (CMC)): 138 % of control | survivor count (dose: 66.0 mg/kg/injection, schedule: Q01DX009 (ip), vehicle: carboxymethylcellulose (CMC)): 5 of 6 | T/C (dose: 100.0 mg/kg/injection, schedule: Q01DX001 (ip), vehicle: carboxymethylcellulose (CMC)): 138 % of control | survivor count (dose: 100.0 mg/kg/injection, schedule: Q01DX009 (ip), vehicle: carboxymethylcellulose (CMC)): 0 of 6 | T/C (dose: 150.0 mg/kg/injection, schedule: Q01DX001 (ip), vehicle: carboxymethylcellulose (CMC)): 138 % of control | survivor count (dose: 150.0 mg/kg/injection, schedule: Q01DX009 (ip), vehicle: carboxymethylcellulose (CMC)): 0 of 6 | survivor count (dose: 400.0 mg/kg/injection, schedule: Q01DX001 (ip), vehicle: carboxymethylcellulose (CMC)): 0 of 4
